The supplement of paper PMC12823440, “Inhibitors supercharge kinase turnover through native proteolytic circuits” (Nature, 2025)
Structures can show the parent of a compound that is named as a salt. This is one part of the list. The calls rarely recur for the same compound in another form.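 In K562 cells expressing nanoluciferase-fused kinases, luminescence was recorded at 4 h intervals between 2 and 18 h, normalized as percent of control with DMSO at 100% and a positive control at 0%. A significant (2 sigma) signal drop marks a time point as decreased. The authors' rule for a hit is not shown and takes in more than the number of time points.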

Chains of the proteins cited; added tags and fusions are not shown. Lines headed by an entry give the natural chain unless they say otherwise; changes in a name come on top.
UniProt Q16288, whole entry, looked up: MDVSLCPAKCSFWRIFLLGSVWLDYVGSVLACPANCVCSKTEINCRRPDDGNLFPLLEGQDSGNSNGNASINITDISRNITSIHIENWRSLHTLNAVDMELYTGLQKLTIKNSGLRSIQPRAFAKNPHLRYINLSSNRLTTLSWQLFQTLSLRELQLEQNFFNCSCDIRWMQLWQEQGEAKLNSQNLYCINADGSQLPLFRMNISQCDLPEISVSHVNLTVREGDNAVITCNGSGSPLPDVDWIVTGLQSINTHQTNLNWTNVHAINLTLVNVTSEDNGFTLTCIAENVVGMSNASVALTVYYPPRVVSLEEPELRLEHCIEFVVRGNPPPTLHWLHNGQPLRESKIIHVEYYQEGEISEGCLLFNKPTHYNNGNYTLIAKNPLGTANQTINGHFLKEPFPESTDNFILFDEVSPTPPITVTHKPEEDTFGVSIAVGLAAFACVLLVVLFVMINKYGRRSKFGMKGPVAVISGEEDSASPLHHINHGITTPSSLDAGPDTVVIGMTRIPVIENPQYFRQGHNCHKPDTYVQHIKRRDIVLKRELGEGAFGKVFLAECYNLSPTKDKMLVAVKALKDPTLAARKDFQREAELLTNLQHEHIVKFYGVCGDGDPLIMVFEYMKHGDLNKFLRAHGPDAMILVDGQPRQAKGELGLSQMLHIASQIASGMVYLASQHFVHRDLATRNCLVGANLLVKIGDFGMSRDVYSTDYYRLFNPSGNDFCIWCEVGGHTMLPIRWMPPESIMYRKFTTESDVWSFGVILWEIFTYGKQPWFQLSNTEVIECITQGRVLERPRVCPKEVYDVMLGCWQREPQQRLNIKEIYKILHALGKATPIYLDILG
UniProt O96013: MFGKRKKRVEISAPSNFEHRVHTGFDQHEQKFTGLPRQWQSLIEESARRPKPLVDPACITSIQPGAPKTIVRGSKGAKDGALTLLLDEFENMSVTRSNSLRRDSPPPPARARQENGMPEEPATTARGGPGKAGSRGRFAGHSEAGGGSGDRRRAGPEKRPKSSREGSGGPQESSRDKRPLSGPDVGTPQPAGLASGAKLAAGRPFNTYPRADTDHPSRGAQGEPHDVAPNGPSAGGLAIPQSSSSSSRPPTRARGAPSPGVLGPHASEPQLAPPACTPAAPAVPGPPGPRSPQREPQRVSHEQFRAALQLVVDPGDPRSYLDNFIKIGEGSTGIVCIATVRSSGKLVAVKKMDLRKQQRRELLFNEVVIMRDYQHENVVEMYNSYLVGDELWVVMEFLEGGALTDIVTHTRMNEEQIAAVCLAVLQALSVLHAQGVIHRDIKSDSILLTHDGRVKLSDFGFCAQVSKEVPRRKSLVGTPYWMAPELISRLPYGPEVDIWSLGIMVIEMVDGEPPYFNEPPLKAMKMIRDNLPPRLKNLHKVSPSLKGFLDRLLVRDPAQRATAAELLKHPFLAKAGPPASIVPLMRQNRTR
UniProt Q96KB5: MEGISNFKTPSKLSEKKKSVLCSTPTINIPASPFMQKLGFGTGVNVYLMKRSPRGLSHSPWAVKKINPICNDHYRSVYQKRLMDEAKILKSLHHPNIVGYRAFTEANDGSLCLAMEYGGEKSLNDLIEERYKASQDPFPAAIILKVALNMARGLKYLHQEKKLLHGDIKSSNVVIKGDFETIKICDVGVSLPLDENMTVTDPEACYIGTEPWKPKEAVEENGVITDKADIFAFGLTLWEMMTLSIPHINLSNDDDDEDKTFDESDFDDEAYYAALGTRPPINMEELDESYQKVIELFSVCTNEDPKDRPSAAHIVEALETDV
UniProt O15530: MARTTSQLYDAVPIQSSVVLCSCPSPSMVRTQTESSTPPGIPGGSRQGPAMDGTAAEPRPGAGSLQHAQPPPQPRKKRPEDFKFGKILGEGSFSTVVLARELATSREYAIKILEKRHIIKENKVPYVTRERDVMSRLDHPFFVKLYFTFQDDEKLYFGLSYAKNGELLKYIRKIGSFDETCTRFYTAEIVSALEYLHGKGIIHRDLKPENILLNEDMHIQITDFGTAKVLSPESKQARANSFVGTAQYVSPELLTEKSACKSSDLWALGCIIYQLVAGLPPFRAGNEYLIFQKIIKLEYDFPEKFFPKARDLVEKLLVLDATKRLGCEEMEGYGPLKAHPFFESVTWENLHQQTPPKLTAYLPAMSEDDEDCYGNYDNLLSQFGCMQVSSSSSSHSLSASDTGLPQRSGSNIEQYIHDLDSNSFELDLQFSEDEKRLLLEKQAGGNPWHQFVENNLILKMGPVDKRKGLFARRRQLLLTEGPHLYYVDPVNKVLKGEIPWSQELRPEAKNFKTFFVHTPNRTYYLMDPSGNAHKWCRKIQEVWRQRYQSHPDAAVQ
UniProt Q9UBF8: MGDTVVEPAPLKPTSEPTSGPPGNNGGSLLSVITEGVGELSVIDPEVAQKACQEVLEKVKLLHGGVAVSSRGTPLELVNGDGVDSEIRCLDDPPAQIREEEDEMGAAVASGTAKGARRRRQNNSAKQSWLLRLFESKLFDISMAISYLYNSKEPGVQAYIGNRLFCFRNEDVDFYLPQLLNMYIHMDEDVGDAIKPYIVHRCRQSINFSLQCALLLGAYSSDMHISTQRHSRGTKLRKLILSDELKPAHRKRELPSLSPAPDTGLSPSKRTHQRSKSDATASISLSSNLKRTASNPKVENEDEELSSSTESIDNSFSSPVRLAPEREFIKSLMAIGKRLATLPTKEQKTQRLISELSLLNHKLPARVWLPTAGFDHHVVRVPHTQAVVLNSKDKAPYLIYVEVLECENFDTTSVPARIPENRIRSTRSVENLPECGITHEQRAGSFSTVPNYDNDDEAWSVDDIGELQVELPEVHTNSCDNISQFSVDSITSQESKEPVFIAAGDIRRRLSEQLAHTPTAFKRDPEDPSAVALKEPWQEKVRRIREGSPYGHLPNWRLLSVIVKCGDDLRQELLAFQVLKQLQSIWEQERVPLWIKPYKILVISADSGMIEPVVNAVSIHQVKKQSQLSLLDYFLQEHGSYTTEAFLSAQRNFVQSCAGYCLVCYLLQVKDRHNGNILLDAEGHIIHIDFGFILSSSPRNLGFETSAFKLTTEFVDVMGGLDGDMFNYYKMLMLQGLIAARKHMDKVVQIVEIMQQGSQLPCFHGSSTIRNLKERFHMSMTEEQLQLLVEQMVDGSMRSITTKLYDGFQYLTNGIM
UniProt P53350, whole entry: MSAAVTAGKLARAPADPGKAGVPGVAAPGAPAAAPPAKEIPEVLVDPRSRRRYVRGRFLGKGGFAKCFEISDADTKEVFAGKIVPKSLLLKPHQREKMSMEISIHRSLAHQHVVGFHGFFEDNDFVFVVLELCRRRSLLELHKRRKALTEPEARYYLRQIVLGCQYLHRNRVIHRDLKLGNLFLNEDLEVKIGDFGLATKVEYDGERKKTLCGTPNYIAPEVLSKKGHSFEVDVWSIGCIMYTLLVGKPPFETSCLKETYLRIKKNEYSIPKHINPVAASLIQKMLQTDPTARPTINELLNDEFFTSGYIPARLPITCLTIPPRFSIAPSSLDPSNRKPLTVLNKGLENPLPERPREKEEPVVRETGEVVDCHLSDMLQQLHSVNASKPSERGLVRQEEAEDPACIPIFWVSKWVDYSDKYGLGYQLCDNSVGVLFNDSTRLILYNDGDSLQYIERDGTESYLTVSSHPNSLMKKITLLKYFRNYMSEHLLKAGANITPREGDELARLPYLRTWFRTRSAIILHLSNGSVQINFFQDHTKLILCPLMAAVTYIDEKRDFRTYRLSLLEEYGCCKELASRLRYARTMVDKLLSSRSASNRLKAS
UniProt P07949, whole entry, looked up: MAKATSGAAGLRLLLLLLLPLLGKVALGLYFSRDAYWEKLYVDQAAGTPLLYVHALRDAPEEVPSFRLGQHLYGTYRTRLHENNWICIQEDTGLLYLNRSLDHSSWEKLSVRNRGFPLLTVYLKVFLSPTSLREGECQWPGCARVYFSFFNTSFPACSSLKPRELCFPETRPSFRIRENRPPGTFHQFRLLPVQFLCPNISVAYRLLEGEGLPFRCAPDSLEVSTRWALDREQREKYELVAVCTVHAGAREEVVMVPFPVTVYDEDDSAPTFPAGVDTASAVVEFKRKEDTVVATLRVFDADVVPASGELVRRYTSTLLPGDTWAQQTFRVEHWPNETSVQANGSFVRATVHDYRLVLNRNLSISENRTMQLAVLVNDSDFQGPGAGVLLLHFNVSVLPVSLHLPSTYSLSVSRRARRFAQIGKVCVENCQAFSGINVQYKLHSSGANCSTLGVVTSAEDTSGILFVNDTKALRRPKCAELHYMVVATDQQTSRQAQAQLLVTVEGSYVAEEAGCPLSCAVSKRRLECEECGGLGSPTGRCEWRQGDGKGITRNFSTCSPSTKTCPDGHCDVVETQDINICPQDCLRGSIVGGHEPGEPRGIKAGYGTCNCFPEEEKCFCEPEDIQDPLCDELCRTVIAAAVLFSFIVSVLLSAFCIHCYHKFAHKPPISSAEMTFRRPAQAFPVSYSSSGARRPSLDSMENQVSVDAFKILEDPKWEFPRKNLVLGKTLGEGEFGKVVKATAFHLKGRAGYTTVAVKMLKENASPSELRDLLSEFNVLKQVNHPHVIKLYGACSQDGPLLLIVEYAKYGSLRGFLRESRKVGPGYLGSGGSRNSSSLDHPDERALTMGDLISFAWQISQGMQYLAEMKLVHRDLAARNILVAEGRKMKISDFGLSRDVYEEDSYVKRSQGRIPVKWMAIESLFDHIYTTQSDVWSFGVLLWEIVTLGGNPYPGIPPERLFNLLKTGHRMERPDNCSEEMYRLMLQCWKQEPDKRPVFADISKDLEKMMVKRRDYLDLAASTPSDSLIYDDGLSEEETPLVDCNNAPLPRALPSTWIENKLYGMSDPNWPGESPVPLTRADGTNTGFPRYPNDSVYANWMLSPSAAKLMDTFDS
UniProt P07949, whole entry M918T, looked up: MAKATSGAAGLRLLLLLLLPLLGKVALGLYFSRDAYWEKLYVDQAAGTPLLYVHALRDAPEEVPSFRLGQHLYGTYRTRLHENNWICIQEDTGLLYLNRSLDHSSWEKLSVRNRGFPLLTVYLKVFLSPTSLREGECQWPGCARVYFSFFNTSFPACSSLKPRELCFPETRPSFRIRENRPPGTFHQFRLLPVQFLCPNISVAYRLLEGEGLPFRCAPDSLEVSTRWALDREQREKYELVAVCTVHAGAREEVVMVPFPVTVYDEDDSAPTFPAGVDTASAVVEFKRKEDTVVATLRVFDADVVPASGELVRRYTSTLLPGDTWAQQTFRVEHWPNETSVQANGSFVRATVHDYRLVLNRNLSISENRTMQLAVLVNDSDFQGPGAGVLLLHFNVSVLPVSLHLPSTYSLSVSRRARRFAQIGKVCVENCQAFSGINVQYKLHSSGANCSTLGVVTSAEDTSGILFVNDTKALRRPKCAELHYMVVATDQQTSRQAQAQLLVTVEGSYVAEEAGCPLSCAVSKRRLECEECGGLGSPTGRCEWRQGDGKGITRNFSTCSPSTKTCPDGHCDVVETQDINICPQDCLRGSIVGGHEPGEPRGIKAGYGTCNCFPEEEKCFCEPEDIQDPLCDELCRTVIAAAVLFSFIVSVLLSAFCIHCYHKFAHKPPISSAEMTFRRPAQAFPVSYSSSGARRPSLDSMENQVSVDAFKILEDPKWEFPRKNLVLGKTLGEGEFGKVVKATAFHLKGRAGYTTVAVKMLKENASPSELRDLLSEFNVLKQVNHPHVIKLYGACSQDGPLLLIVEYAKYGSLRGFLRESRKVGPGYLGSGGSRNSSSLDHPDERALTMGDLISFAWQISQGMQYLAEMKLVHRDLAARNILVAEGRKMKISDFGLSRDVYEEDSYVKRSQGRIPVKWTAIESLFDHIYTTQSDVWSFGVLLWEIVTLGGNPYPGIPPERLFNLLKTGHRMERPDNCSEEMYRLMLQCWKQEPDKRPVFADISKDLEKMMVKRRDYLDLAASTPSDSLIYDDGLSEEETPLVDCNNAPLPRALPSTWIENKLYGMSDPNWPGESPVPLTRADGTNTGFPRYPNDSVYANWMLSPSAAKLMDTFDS
UniProt Q9BRS2: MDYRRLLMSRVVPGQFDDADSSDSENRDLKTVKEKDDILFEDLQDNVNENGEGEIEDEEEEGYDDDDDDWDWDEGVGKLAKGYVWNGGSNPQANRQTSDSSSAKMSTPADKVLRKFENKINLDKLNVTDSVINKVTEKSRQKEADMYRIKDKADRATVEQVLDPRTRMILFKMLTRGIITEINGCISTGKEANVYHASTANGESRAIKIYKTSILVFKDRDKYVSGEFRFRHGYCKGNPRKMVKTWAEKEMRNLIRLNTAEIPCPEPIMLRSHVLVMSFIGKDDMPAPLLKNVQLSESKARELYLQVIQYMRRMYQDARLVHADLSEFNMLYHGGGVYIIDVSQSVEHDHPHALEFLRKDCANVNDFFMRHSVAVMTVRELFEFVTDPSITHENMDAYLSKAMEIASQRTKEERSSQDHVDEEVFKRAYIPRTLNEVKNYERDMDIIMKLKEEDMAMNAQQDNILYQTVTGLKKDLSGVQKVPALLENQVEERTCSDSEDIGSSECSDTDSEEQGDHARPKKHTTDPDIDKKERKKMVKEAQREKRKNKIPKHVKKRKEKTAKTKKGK

How the values were obtained:
Test in all cases: number of time points (of 5) at which kinase-Nluc abundance scored as decreased, DMSO-normalised (count); higher = more persistent destabilization
Settings in all cases: K562; 2-18 h
NTRK3 = NTRK3 (UniProt Q16288)
PAK4 = PAK4 (UniProt O96013)
PBK = PBK (UniProt Q96KB5)
PDGFRB = PDGFRB (UniProt P09619)
PDK1 = PDK1 (UniProt Q15118)
PDPK1 = PDPK1 (UniProt O15530)
PIK4CA = PIK4CA (UniProt P42356)
PIK4CB = PIK4CB (UniProt Q9UBF8)
PLK1 = PLK1 (UniProt P53350)
PRKAA1 = PRKAA1 (UniProt Q13131)
PRKCA = PRKCA (UniProt P17252)
PTK2 = PTK2 (UniProt Q05397)
PTK2B = PTK2B (UniProt Q14289)
RAF1 = RAF1 (UniProt P04049)
[1] = target: RAF1_S257L (clone: RAF1_mut) (UniProt P04049)
RET = RET (UniProt P07949)
[2] = target: RET_M918T (clone: RET_mut) (UniProt P07949)
RIOK1 = RIOK1 (UniProt Q9BRS2)
RIPK1 = RIPK1 (UniProt Q13546)
RIPK2 = RIPK2 (UniProt O43353)

SMILES	number of time points (NTRK3)	number of time points (PAK4)	number of time points (PBK)	number of time points (PDGFRB)	number of time points (PDK1)	number of time points (PDPK1)	number of time points (PIK4CA)	number of time points (PIK4CB)	number of time points (PLK1)	number of time points (PRKAA1)	number of time points (PRKCA)	number of time points (PTK2)	number of time points (PTK2B)	number of time points (RAF1)	number of time points [1]	number of time points (RET)	number of time points [2]	number of time points (RIOK1)	number of time points (RIPK1)	number of time points (RIPK2)
C=CC(=O)N1CCN(c2nc(OC[C@@H]3CCCN3C)nc3c2CCN(c2cccc4cccc(C)c24)C3)C[C@@H]1CC#N (2.5 µM)	0	0	0	0	0	0	0	0	0	0	0	0	0	0	0	0	0	0	0	0
Cn1cc(C2=C(c3c4n(c5ccccc35)CCC(CN)C4)C(=O)NC2=O)c2ccccc21 (stereo not given) [Bisindolylmaleimide X (hydrochloride)] (2.5 µM)	0	0	0	0	0	0	0	0	0	0	0	0	0	0	0	0	0	0	0	0
O=C1NCCSc2c1sc1ccc(O)cc21 (2.5 µM)	0	0	0	0	0	1	0	0	0	0	0	0	0	0	1	0	0	0	2	1
O=C(Nc1cc(Cl)cc(Cl)c1)Nc1cc(Cl)cc(Cl)c1 (10 µM)	0	0	0	0	0	0	0	3	0	0	0	0	0	0	0	0	0	0	0	0
O=C(O)[C@]1(Cc2cccc(Nc3nccs3)n2)CC[C@@H](Oc2cccc(Cl)c2F)CC1 (2.5 µM)	0	0	0	2	0	1	2	1	0	1	0	0	0	2	3	1	1	2	0	1
O=c1cc(-c2ccc(O)cc2)oc2cc(O)c(O)c(O)c12 [Scutellarein] (10 µM)	0	0	0	0	0	0	0	0	0	0	0	0	0	0	0	0	0	0	0	0
O=c1cc(-c2ccc(O)cc2)oc2cc(O)c([C@@H]3O[C@H](CO)[C@@H](O)[C@H](O)[C@H]3O)c(O)c12 [Isovitexin] (10 µM)	0	0	0	0	0	0	0	0	0	0	0	0	0	0	0	0	0	0	0	0
COc1ncc2cc(C(=O)Nc3cc(C(=O)NCc4cccc(Cl)c4)ccc3Cl)c(=O)[nH]c2n1 (2.5 µM)	0	0	0	0	0	0	0	0	0	0	0	0	0	0	0	0	0	0	0	0
Cc1cc(Nc2ncc(Cl)c(Nc3ccccc3S(=O)(=O)C(C)C)n2)c(OC(C)C)cc1C1CCN(CC(=O)NCCNc2cccc3c2C(=O)N(C2CCC(=O)NC2=O)C3=O)CC1 (stereo not given) (10 µM)	0	0	0	0	0	0	0	0	0	0	0	5	0	0	0	0	0	0	0	0
Cc1cc(F)c(Nc2ncnc3cc(OCc4ccccc4)ccc23)cc1O (10 µM)	0	0	0	0	0	0	0	0	0	0	0	0	0	0	0	0	0	0	0	0
CCCCCC1CC1CC1CC1CCCCCCCC(=O)O (stereo not given) (10 µM)	0	0	0	0	0	0	0	0	0	0	0	0	0	0	0	0	0	0	0	0
COc1c(OCCCN2CCOCC2)ccc2c3n(c(=NC(=O)c4cnc(N)nc4)nc12)CCN3 [Copanlisib (dihydrochloride)] (10 µM)	3	0	0	0	0	4	4	3	3	2	0	3	0	3	4	4	4	2	3	3
C=CC(=O)Nc1cc(C(=O)NC)cc(-c2n[nH]c3ccccc23)c1 (10 µM)	0	0	0	0	0	0	0	0	0	1	0	2	0	0	1	0	0	1	3	3
CNCCOc1ccccc1C(C)(C)Nc1nccn(-c2cc(C(=O)NC3CC3)ccc2C)c1=O [p38α inhibitor 2] (10 µM)	0	0	0	0	0	0	0	0	0	0	2	0	0	0	0	0	0	0	0	0
Cc1cc([N+](=O)[O-])c(NS(=O)(=O)c2cccc(C(=O)O)c2)cc1-c1cccnc1 [Alofanib] (10 µM)	0	0	0	0	0	0	0	0	0	0	0	0	0	0	0	0	0	0	0	0
NC(=O)c1cccc2c(N[C@H](CN3CCC3)c3ccc(Cl)c(C(F)(F)F)c3)ncnc12 (10 µM)	0	0	0	0	0	0	0	0	0	0	0	0	0	0	0	0	0	0	0	0
Cc1cccc(-c2[nH]c(C(C)(C)C)nc2-c2ccc3c(c2)OCO3)n1 (2.5 µM)	0	0	0	0	0	0	0	0	0	0	0	0	0	0	0	0	0	0	0	0
CC(=O)Nc1nc(C)c(-c2cc3c(c(S(C)(=O)=O)c2)C(=O)N([C@@H](C)C2CC2)C3)s1 (2.5 µM)	0	0	0	0	0	0	0	0	0	0	0	0	0	0	0	0	0	0	0	0
Cn1cc(-c2ccc3ncc(Cc4ccc5ncccc5c4)n3n2)cn1 (10 µM)	0	0	0	0	0	0	0	0	0	0	0	0	0	0	0	0	0	0	0	0
CCc1ccc(NC(=O)Nc2ccccc2)cc1 (10 µM)	0	0	0	0	0	0	0	0	0	0	0	0	0	0	0	0	0	0	0	0
COc1ccc(C(=O)c2cn(C(C)C)c3ncnc(N)c23)cc1NC(=O)Nc1ccc(Cl)cc1Cl (10 µM)	0	0	0	0	0	0	0	0	0	0	0	4	0	2	0	0	0	0	0	0
Clc1ccc(Nc2cccc(-c3cn[nH]c3)c2)cc1 (10 µM)	0	0	0	0	0	0	0	0	0	0	0	0	0	0	0	0	0	0	0	0
CNC(=O)Nc1cc(Oc2cncc(C)c2)c(-c2ccc(OCC(C)(C)O)nc2)cn1 (2.5 µM)	0	0	0	0	0	0	0	0	0	0	0	0	0	0	0	0	0	0	0	0

Part of the list above, bar-delimited.
SMILES | number of time points (NTRK3) | number of time points (PAK4) | number of time points (PBK) | number of time points (PDGFRB) | number of time points (PDK1) | number of time points (PDPK1) | number of time points (PIK4CA) | number of time points (PIK4CB) | number of time points (PLK1) | number of time points (PRKAA1) | number of time points (PRKCA) | number of time points (PTK2) | number of time points (PTK2B) | number of time points (RAF1) | number of time points [1] | number of time points (RET) | number of time points [2] | number of time points (RIOK1) | number of time points (RIPK1) | number of time points (RIPK2)
Cn1cc(C2=C(c3c4n(c5ccccc35)CCC(CN)C4)C(=O)NC2=O)c2ccccc21 (stereo not given) [Bisindolylmaleimide X (hydrochloride)] (2.5 µM) | 0 | 0 | 0 | 0 | 0 | 0 | 0 | 0 | 0 | 0 | 0 | 0 | 0 | 0 | 0 | 0 | 0 | 0 | 0 | 0
O=C1NCCSc2c1sc1ccc(O)cc21 (2.5 µM) | 0 | 0 | 0 | 0 | 0 | 1 | 0 | 0 | 0 | 0 | 0 | 0 | 0 | 0 | 1 | 0 | 0 | 0 | 2 | 1
